Assay results: patent publication US11732029B2, “Methods and compositions for the treatment of wounds” (The University of Chicago, priority 2017, dated 2023)

What was measured:
[1] = Release of rhBMP-2 from collagen matrix (hydrogel); settings: bovine type I collagen gel, 500 ng/mL rhBMP-2, 120 nM FabCol variant
[2] = Release of GFs from fibrin-mimetic (PEG) matrix; settings: 10 μM vWF HBD-Cys; over 5 d

Row | Sequence | rhBMP-2 released from collagen hydrogels after 7 days [1] | release of CXCL-12γ from PEG-based synthetic matrix [2] | release of FGF-2 from PEG-based synthetic matrix [2]
1 | GCGGSLRPAPPPISGGGYRARPAKAAATQKKVERKAPDA [FgHBD] | 80% |  | 
2 | YIGLKDRKRPSELRRIASQVKYAC [vWF HBD] |  | slow-release | slow-release
